Drawing on the supplement of paper PMC8256030, this text covers percent viability for seven compounds.

Each structure is given as a SMILES string. Where “and” joins values, the source holds several entries; their conditions need not be identical. Equal values may be shown once. The list shows a part of the results. Repeats in this data set agree poorly, so a single value says little.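 HEK293T cells were given each compound shortly before transfection with a reporter in which red mCherry is followed by the SARS-CoV-2 frameshift element and then GFP in the −1 frame, so GFP appears only after frameshifting.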

The test deals with HEK293T. Kind of test: percent viability (nuclei count) relative to control; higher = more viable cells. Particulars: 10 µM; 24 h.
As for `Cc1cn[nH]c1` [fomepizole], the percent viability is 256% and 184%.
Next, `CCC(=O)OCC(=O)[C@@]1(OC(=O)CC)[C@H](C)C[C@H]2[C@H]3[C@H]([C@@H](O)C[C@@]21C)[C@@]1(C)C=CC(=O)C=C1C[C@H]3Cl`: 306%.
Next, `Cn1ccnc1S` [thiamazole]: 143% and 266%; `C[C@H](Cc1ccc(O)c(O)c1)[C@@H](C)Cc1ccc(O)c(O)c1` [Actinex]: 13.7%.
Next, `COc1cc(NC(=O)Nc2cccc(CNC(=O)O[C@H]3CCOC3)c2)ccc1-c1cnco1` [merimepodib]: 145%; `Cn1c(CNc2ccc(C(=N)N)cc2)nc2cc(C(=O)N(CCC(=O)O)c3ccccn3)ccc21` [dabigatran]: 247%; `O=C(O)[C@H](CCc1ccccc1)N[C@H]1CCCN2CCC[C@@H](C(=O)O)N2C1=O` [cilazaprilat]: 83.8%.
